Laboratory results from PMC4441479.
No constants are given. Whether binding was seen depends on the method and setting. Binding seen in cells or lysates may run through a third protein. These calls come from enrichment with a bait or labelling near it, and not all partners need be listed.

Chains of the proteins cited; added tags and fusions are not shown. Lines headed by an entry give the natural chain unless they say otherwise; changes in a name come on top. A line that says so, or that is headed by a name, gives the form on record, which may keep a tag or linker.
UniProt Q7Z2W4: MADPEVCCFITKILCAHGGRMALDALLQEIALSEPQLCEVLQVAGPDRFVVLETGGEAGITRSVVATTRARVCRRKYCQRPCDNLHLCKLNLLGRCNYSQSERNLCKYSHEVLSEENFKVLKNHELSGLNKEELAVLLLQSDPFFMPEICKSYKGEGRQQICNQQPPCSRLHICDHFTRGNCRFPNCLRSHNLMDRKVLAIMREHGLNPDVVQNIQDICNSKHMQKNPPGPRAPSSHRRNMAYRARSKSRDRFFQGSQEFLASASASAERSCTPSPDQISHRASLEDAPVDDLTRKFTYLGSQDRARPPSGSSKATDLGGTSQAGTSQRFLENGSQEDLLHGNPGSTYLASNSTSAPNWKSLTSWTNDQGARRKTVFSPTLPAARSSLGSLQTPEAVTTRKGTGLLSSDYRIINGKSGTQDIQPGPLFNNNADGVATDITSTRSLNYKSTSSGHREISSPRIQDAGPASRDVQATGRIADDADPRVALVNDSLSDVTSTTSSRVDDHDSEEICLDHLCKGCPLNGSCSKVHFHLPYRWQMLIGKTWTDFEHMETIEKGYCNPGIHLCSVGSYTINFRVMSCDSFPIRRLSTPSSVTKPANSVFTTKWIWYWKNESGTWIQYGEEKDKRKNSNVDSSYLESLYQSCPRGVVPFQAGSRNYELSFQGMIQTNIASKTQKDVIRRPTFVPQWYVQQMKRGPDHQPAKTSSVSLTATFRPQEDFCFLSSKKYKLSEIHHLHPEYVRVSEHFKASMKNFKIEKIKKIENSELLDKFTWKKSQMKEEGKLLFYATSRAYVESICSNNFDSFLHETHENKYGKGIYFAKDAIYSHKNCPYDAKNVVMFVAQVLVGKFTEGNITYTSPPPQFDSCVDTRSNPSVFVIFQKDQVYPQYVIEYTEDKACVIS
UniProt Q96KR1: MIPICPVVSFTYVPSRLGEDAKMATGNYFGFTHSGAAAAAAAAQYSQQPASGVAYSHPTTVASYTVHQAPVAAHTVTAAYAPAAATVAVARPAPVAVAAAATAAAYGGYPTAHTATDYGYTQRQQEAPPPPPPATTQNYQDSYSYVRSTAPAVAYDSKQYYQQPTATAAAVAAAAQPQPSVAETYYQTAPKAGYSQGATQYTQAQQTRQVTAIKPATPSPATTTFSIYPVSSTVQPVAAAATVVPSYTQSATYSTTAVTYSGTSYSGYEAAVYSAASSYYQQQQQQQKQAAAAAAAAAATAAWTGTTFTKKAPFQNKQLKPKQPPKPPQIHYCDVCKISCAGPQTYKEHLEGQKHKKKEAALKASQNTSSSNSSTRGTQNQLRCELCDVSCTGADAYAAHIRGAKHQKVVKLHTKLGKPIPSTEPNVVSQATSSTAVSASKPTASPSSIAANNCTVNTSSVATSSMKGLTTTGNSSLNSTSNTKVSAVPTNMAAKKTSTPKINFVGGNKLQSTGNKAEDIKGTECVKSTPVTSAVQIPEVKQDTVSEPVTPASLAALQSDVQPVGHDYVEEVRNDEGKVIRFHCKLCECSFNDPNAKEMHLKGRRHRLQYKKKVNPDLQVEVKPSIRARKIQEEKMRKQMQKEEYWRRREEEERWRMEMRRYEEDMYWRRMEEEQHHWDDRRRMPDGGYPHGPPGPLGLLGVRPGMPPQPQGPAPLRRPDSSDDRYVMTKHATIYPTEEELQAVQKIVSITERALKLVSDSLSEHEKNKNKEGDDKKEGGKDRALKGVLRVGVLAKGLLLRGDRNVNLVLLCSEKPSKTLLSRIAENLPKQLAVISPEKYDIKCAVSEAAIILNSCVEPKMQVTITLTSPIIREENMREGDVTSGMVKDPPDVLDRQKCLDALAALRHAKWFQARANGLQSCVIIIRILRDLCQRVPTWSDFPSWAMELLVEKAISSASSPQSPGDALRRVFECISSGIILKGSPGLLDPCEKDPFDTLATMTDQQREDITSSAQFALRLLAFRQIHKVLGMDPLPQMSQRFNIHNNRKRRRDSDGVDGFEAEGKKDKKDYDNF
UniProt P09874: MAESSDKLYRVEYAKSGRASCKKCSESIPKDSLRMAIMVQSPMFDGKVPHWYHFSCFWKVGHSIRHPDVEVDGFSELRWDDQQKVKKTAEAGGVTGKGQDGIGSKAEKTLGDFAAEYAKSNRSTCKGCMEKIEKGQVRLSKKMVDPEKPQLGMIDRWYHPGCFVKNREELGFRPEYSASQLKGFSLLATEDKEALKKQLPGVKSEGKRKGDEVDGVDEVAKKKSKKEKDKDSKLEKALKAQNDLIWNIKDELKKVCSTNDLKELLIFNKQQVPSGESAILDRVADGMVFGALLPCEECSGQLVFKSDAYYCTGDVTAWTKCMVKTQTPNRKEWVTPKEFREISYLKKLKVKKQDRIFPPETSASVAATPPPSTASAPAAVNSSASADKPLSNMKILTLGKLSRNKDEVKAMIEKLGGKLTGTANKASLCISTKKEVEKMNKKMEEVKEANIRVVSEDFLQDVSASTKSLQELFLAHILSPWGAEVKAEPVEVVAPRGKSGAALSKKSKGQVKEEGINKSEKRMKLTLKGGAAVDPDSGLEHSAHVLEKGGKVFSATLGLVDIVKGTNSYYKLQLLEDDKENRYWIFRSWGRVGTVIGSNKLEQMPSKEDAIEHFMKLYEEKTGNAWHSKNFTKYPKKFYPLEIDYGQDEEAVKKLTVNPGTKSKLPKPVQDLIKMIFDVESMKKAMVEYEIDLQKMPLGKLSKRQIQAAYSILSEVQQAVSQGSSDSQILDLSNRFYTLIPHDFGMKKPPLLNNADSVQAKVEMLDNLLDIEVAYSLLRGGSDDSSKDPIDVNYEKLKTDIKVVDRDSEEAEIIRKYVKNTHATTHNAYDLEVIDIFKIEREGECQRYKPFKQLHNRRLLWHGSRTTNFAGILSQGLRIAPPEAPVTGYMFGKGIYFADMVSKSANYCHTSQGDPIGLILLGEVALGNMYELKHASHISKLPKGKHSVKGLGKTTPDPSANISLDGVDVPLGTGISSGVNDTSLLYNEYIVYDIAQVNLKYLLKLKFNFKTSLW
Protein phosphatase 2, regulatory subunit A, beta (P30154-4, form named): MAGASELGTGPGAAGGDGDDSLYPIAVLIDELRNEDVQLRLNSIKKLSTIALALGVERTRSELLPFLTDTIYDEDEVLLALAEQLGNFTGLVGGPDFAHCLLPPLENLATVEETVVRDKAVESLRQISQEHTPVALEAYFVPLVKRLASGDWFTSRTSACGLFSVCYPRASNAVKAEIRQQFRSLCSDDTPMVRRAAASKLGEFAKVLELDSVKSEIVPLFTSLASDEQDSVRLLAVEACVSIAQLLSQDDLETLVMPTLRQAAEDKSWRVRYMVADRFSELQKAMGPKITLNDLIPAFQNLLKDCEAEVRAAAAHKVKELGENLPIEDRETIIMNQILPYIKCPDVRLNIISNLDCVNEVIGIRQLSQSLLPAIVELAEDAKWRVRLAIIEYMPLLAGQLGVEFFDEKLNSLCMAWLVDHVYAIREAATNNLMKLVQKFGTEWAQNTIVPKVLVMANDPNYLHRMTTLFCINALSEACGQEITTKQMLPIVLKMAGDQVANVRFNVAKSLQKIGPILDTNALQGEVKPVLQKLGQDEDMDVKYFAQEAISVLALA
UniProt P27708: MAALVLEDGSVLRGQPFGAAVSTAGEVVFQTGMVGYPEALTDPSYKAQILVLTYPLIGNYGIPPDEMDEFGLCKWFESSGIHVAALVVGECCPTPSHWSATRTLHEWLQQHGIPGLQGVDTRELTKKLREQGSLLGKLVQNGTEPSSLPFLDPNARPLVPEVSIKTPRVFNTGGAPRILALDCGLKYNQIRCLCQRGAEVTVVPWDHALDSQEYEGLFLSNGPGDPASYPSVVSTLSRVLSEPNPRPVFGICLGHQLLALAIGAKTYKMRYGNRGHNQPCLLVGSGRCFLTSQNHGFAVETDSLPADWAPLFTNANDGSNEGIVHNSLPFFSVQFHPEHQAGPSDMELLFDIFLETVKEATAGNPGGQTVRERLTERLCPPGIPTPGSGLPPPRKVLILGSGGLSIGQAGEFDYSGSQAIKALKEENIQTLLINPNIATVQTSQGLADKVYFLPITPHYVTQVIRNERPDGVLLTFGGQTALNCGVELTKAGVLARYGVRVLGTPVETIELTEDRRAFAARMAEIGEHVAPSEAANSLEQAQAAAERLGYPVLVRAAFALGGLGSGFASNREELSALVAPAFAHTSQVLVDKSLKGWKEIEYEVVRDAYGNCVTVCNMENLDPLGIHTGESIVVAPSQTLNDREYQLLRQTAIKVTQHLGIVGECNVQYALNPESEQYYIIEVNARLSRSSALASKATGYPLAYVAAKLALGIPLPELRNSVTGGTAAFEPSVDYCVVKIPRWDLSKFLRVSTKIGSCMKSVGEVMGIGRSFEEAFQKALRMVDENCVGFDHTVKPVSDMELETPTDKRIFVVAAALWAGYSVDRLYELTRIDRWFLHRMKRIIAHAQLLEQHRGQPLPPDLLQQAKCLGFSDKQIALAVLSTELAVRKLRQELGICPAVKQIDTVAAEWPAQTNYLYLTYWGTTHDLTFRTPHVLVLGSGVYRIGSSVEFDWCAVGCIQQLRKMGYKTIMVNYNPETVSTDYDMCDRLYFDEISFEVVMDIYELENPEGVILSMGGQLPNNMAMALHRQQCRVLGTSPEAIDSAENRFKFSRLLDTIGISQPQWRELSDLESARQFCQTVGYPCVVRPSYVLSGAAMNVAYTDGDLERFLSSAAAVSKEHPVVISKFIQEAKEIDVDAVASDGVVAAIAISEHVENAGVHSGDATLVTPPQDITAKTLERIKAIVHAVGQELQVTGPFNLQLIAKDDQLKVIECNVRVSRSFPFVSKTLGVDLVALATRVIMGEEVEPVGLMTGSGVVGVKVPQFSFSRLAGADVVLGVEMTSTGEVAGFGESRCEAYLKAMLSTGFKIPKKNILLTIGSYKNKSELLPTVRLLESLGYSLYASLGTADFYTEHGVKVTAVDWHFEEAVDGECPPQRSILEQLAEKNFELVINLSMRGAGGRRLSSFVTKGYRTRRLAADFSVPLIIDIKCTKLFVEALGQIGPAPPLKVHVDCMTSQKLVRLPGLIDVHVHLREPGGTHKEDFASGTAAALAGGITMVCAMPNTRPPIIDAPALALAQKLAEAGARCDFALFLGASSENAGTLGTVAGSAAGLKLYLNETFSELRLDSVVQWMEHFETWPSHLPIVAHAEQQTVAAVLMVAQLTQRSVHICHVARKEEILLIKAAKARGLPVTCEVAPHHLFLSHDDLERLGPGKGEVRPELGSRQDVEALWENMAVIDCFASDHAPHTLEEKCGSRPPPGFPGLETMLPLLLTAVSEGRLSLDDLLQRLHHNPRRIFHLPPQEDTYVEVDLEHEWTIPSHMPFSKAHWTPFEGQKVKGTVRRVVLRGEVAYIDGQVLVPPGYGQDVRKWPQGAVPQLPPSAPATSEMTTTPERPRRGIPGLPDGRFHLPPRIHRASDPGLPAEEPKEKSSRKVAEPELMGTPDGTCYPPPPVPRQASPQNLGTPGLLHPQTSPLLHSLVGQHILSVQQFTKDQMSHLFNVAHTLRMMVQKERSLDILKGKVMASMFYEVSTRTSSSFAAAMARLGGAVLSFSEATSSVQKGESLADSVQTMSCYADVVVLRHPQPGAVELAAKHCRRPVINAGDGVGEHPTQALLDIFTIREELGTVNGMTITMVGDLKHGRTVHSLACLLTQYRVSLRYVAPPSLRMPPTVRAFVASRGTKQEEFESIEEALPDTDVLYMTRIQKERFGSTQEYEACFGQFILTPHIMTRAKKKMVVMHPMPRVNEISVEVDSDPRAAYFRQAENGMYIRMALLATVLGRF
UniProt P51116: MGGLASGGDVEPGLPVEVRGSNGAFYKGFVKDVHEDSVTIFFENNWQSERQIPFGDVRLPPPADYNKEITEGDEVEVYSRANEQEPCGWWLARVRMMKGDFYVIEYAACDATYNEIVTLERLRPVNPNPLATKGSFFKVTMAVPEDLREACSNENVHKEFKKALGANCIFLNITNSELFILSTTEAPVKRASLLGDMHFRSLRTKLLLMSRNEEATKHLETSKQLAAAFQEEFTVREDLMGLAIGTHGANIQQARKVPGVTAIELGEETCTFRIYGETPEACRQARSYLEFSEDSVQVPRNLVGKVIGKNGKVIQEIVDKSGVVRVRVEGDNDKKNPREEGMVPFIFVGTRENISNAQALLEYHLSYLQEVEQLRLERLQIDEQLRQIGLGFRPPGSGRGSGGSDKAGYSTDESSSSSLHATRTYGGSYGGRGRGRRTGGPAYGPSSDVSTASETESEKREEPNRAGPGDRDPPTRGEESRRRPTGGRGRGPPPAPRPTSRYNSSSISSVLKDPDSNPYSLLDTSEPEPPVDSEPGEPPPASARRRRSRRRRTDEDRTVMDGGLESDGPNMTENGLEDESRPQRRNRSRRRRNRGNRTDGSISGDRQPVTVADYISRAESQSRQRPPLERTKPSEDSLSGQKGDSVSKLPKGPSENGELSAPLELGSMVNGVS

Molecular target: ZAP-L-FL (FLAG-tagged ZAP-L) (human) (UniProt Q7Z2W4)
Experiment: affinity purification with mass spectrometry; ZAP-L-FL or empty vector transfected in 293T; IP with α-FLAG agarose from whole cell lysates (sonication) in the presence or absence of 30 μg/ml RNase; tandem MS; hits: 3 or more peptides, two replicate IPs, not in vector control

binding, binds:
Staufen double-stranded RNA binding protein 1 (from UniProt O95793-2 1-496)
Zinc finger RNA binding protein (from UniProt Q96KR1 1-1074)
Ubiquitin specific peptidase 9, X-linked (from UniProt Q93008-3 1-2570)
RuvB-like 2 (E. coli) (from UniProt Q9Y230-1 1-463)
Glutamyl-prolyl-tRNA synthetase (from UniProt P07814 1-1512)
ELAV (embryonic lethal, abnormal vision, Drosophila)-like 1 (Hu antigen R) (from UniProt Q15717-1 1-326)
Histone deacetylase 1 (from UniProt Q13547 1-482)
Chaperonin containing TCP1, subunit 6A (zeta 1) (from UniProt P40227-1 1-531)
Ly1 antibody reactive (from UniProt Q9NX58 1-379)
YTH domain family, member 2 (from UniProt Q9Y5A9-1 1-579)
General transcription factor IIIC, polypeptide 1, alpha 220kDa (from UniProt Q12789-2 1-2109)
Protein phosphatase 2, regulatory subunit A, alpha (from UniProt P30153 1-589)
Chaperonin containing TCP1, subunit 7 (eta) (from UniProt Q99832-1 1-543)
Poly [ADP-ribose] polymerase 1 (from UniProt P09874 1-1014)
Protein phosphatase 2, regulatory subunit A, beta (from UniProt P30154-4 1-556)
Carbamoyl-phosphate synthetase 2, aspartate transcarbamylase (from UniProt P27708 1-2225)
Fragile X mental retardation, autosomal homolog 2 (from UniProt P51116 1-673)
RuvB-like 1 (E. coli) (from UniProt Q9Y265-1 1-456)
General transcription factor IIi (from UniProt P78347-1 1-998)
Ubiquitin specific peptidase 7 (herpes virus-associated) (from UniProt Q93009-1 1-1102)
GTPase activating protein (SH3 domain) binding protein 1 (from UniProt Q13283-1 1-466)
Chromodomain helicase DNA binding protein 4 (from UniProt Q14839-1 1-1912)
DnaJ (Hsp40) homolog, subfamily A, member 2 (from UniProt O60884 1-412)
Heterochromatin protein 1-binding protein 3 (from UniProt Q5SSJ5-1 1-553)
Tripartite motif containing 25/E3 ubiquitin/ISG15 ligase TRIM25 (from UniProt Q14258 1-630)
Interleukin enhancer-binding factor 2 (from UniProt Q12905 1-390)
Zinc finger protein 24 (from UniProt P17028-1 1-368)
DnaJ (Hsp40) homolog, subfamily A, member 1 (from UniProt P31689-1 1-397)
Heat shock 70kDa protein 4 (from UniProt P34932-1 1-840)
Insulin-like growth factor 2 mRNA binding protein 3 (from UniProt O00425-1 1-579)
Heat shock 105kDa/110kDa protein 1 (from UniProt Q92598-1 1-858)
KRI1 homolog (S. cerevisiae) (from UniProt Q8N9T8 1-703)
Protein phosphatase 2, catalytic subunit, alpha isozyme (from UniProt P67775-1 1-309)
Topoisomerase (DNA) I (from UniProt P11387 1-765)
Heterogeneous nuclear ribonucleoprotein U-like 1 (from UniProt Q9BUJ2-1 1-856)
